Publication doi:10.1101/2022.11.23.517591

What was measured:
[1] = target: T1, VAP27-1, luciferase complementation fusion (Arabidopsis thaliana) (UniProt Q8VZ95); test: split reporter
T1 sequence: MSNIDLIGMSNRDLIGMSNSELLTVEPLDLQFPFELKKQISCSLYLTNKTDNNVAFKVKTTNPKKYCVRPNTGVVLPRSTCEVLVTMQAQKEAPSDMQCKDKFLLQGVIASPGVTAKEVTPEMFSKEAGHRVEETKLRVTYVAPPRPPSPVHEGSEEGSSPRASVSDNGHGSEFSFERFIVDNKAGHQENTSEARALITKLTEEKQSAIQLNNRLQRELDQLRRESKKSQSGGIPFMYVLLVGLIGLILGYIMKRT

[2] = target: T2, RGS1-YFP, from the 35S::RGS1-YFP transgenic line (Arabidopsis thaliana) (UniProt Q8H1F2); test: co-IP
T2 sequence: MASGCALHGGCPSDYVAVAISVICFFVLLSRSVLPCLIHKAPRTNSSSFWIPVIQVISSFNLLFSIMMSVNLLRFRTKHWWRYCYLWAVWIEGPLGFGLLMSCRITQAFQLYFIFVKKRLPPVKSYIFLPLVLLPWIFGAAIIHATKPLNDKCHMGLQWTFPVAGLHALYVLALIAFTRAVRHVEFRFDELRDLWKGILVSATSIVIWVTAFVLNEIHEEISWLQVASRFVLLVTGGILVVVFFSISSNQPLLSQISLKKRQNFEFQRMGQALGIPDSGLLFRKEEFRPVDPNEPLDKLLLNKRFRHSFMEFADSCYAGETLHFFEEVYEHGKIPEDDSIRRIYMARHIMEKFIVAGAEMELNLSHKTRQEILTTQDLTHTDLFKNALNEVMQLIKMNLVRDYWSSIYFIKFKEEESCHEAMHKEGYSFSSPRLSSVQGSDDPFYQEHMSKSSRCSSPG

[3] = target: T3, VAP27-1-GFP, from the 35S:VAP27-1-GFP transgenic plant (Arabidopsis thaliana) (UniProt Q8VZ95); test: co-IP
T3 sequence: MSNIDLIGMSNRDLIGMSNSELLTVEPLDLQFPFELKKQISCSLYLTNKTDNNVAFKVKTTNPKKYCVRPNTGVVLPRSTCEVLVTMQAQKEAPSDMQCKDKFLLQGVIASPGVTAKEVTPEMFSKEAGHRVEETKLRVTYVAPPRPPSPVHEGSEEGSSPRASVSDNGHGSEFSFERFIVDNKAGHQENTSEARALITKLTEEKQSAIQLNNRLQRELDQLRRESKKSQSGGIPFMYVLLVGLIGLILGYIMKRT

[4] = target: GST-VAP27-1 (Arabidopsis thaliana) (UniProt Q8VZ95); test: pull-down

For “ORP2AS (ORP2A Short), luciferase complementation fusion (Arabidopsis thaliana)”, the binding [1] was “binds”.

For “ORP2AS-3×Flag (ORP2A Short), from the 35S::ORP2Ag-3Flag transgenic line (Arabidopsis thaliana)”, the binding [2] was “no binding” and the binding [3] was “binds”.

B1: ORP2A-3×Flag (Full-Length), from the 35S::ORP2Ag-3Flag transgenic line (protein, UniProt Q940Y1 1-721)
chain: MRVKELHPLCCITLESPHGINSQSPEEPVTTALTRSRSLPAKSLTGGSESETVAGILYKWTNFGKGWRSRWFLLRNGILSYSKIRRPENLNLLSPDDDVRLIGDISGERLSRMDSCSGRRKQQKTVGIVHLKVSSFRESKSDDRKFYIFTATKTLHLRTDSITDRAAWLQALASTKCIFPLRSLNGDFSFIPPKDLSISTERLKKRLHEEGMNENLVKECEQIMLSEFSEMHGQVKLLHEERTNLLDALRQLEAANLEVGASGKHEFSSLGRGKYSECSTTASSDGKQEFEDVSEEDEPSFHDTKEFFNEPNIGSESNLAISGHTDIKRRTKLPDPAEKEKGVSLWSMIKDNVGKDLTRVCLPVYFNEPISSLQKCFEDLEYSYLLDRAYEHGKSGNGLLRALNVAAFAVSGYASTEGRHCKPFNPLLGETYEADFPEKGIRFFSEKVSHHPTVIACHCEGKGWKFWGDTNLRSKFWGRSIQVEPVGVLTLEFDDGEVFQWSKVTSTIYNIILGKLYCDHHGVMQIRGNRQYSCTLKFKEQSILERNPHQVNGFVEDVAGQKAATIFGKWDDSLYYVAGDGINKSKVSDPASNASLLWKRTKPPPNVTRYNLTSFAITLNELTPGLQEILPPTDSRLRPDQRHLENGEYEKANLEKQRLERRQRMSRQLQESGWRPRWFERQGESDTFKYTGGYWEARGHRNWDDCPDIFGEFTEELADAA
For B1, the binding [4] was “binds”.

Results are given in words; binding and its absence hold for the method and conditions named. Binding seen in cells or lysates may run through a third protein. For some of these results: Binding can be weak; no strength is given. Where a sequence is shown, tags or fusion partners need not be part of it.
